Data on 1 substance can be found in publication PMC7064531.

In this assay the target is proteasome ATPase Rpt3 (endogenous) (human (endogenous in HCT116)) (UniProt P43686). The assay can be described thus: co-IP; Rpt3 antibody immunoprecipitation from lysates of parental HCT116 cells (mock, scrambled or E6AP siRNA, empty vector or myc-hRpn10 constructs); 1% Triton X-100 buffer, overnight 4 °C; immunoblot.

No constants are given. Whether binding was seen depends on the method and setting. Binding seen in cells or lysates may run through a third protein. Some entries that bind do so weakly or less than the wild type.

On to “endogenous hRpn10 (full-length protein in WT HCT116 cells) (from UniProt P55036 1-377)”, for which the binding entry is reported as “binds”.
